Assay results taken from PubChem BioAssay AID248 (DTP/NCI, 2004).
The list shows only some results of the screen, not a fair sample: it gathers tests that were run many times, whatever their T/C, doses with no T/C, and many T/C values between a quarter and a half above the control. Further doses and runs are listed elsewhere. T/C is the treated group as % of the vehicle group. Some entries give survivors of the animals treated and no T/C: the source files T/C as zero there, which appears to mark a toxic dose or a test without result, not a measured value. Some survivor counts are full or nearly so, which does not show that the dose was tolerated: survival well below the control is almost never listed, so the zero probably covers shortened survival too. Survivors were counted at the toxicity check, usually on the fifth day, unless a day is given; later deaths do not show. Schedules are NCI's codes, read here as Q, the interval in days (D) or hours (H), X, the number of doses. Some schedule codes hold Z or #, which are not explained here. Where survival is the endpoint, this PubChem deposit counts one and a half times the control or more as active, and values a quarter to a half above the control carry no call in these data; other NCI protocols may use other cut-offs. Some doses were run more than once; the values are given in rising order. Some T/C values carry the count of animals alive at the toxicity check (mostly the fifth day); without a count, all were alive then.

System: L1210 leukemia ip in BDF1 mice, survival T/C
Test: NCI In Vivo Anticancer Drug Screen. Data for tumor model L1210 Leukemia (intraperitoneal) in B6D2F1 (BDF1) mice
Conditions: T/C endpoint: mean survival time, higher T/C = longer survival
[1] = dose: 400.0 mg/kg/injection, schedule: Q01DX001 (ip), vehicle: saline
[2] = dose: 400.0 mg/kg/injection, schedule: Q01DX009 (ip), vehicle: other
[3] = dose: 200.0 mg/kg/injection, schedule: Q01DX009 (ip), vehicle: Klucel (hydroxypropylcellulose) (HPC)
[4] = dose: 200.0 mg/kg/injection, schedule: Q01DX009 (ip), vehicle: saline with Tween-80

In the case of `C[C@H]1CN1C1=CC(=O)C(N2C[C@@H]2C)=CC1=O`, the T/C (dose: 1.33 mg/kg/injection, schedule: Q04DX003 (ip), vehicle: other) was 127 % of control, the T/C (dose: 2.66 mg/kg/injection, schedule: Q04DX003 (ip), vehicle: saline with Tween-80) was 127 % of control and the T/C (dose: 3.0 mg/kg/injection, schedule: Q04DX003 (ip), vehicle: other) was 136 % of control. The T/C (dose: 3.13 mg/kg/injection, schedule: Q01DX009 (ip), vehicle: other) was 146 % of control, the T/C (dose: 3.5 mg/kg/injection, schedule: Q01DX009 (ip), vehicle: other) was 146 % of control and the T/C (dose: 4.0 mg/kg/injection, schedule: Q01DX001 (ip), vehicle: other) was 125 % of control. The T/C (dose: 4.0 mg/kg/injection, schedule: Q04DX003 (ip), vehicle: saline with Tween-80) was 139 % of control, the T/C (dose: 6.0 mg/kg/injection, schedule: Q04DX003 (ip), vehicle: saline with Tween-80) was 138 % of control and the survivor count (dose: 6.25 mg/kg/injection, schedule: Q01DX009 (ip), vehicle: other) was 6 of 6. For the same compound, the T/C (dose: 8.0 mg/kg/injection, schedule: Q01DX001 (ip), vehicle: other) was 131 % of control, the T/C (dose: 8.0 mg/kg/injection, schedule: Q01DX009 (ip), vehicle: other) was 126 % of control and the T/C (dose: 12.5 mg/kg/injection, schedule: Q04DX003 (ip), vehicle: saline with Tween-80) was 129 % of control. For the same compound, the T/C (dose: 16.0 mg/kg/injection, schedule: Q04DX003 (ip), vehicle: Klucel (hydroxypropylcellulose) (HPC)) was 125 % of control, the T/C (dose: 19.0 mg/kg/injection, schedule: Q01DX001 (ip), vehicle: other) was 129 % of control and the survivor count (dose: 38.0 mg/kg/injection, schedule: Q01DX001 (ip), vehicle: other) was 0 of 6. The survivor count (dose: 50.0 mg/kg/injection, schedule: Q04DX003 (ip), vehicle: saline with Tween-80) was 5 of 6, the survivor count (dose: 75.0 mg/kg/injection, schedule: Q01DX001 (ip), vehicle: other) was 1 of 6 and the survivor count (dose: 150.0 mg/kg/injection, schedule: Q01DX001 (ip), vehicle: other) was 0 of 6. The survivor count (dose: 300.0 mg/kg/injection, schedule: Q01DX001 (ip), vehicle: other) was 0 of 6.
With `CCCN1CC(Br)C(=O)NC1=O` (stereo not drawn) the survivor count (dose: 200.0 mg/kg/injection, schedule: Q01DX Z (ip), vehicle: methylcellulose (MC)) was 6 of 6.
With `CCOC(=O)c1cnc(SC)nc1OCC` the survivor count (dose: 50.0 mg/kg/injection, schedule: Q01DX001 (ip), vehicle: Klucel (hydroxypropylcellulose) (HPC)) was 1 of 6, the survivor count (dose: 100.0 mg/kg/injection, schedule: Q01DX001 (ip), vehicle: saline) was 0 of 6 and the survivor count (dose: 200.0 mg/kg/injection, schedule: Q01DX001 (ip), vehicle: saline) was 0 of 6. The survivor count [1] was 0 of 6.
For `C=C[CH2][Sn]([Br])([c]1ccccc1)[c]1ccccc1`, the survivor count (dose: 6.25 mg/kg/injection, schedule: Q01DX009 (ip), vehicle: saline with Tween-80) was 2 of 6, the survivor count (dose: 100.0 mg/kg/injection, schedule: Q04DX002 (ip), vehicle: saline with Tween-80) was 0 of 3 and the survivor count (dose: 200.0 mg/kg/injection, schedule: Q04DX002 (ip), vehicle: saline with Tween-80) was 0 of 3. For the same compound, the survivor count (dose: 400.0 mg/kg/injection, schedule: Q04DX002 (ip), vehicle: saline with Tween-80) was 0 of 3.
With `O=[N+]([O-])c1ccc(CBr)cc1` the survivor count (dose: 100.0 mg/kg/injection, schedule: Q01DX009 (ip), vehicle: other) was 5 of 6, the survivor count (dose: 200.0 mg/kg/injection, schedule: Q01DX009 (ip), vehicle: other) was 0 of 6 and the survivor count [2] was 0 of 6.
For `Cc1ccc(NC(=O)N2CC2)cc1NC(=O)N1CC1`, the survivor count (dose: 100.0 mg/kg/injection, schedule: Q01DX009 (ip), vehicle: Klucel (hydroxypropylcellulose) (HPC)) was 0 of 6, the survivor count [3] was 0 of 6 and the survivor count (dose: 400.0 mg/kg/injection, schedule: Q01DX009 (ip), vehicle: Klucel (hydroxypropylcellulose) (HPC)) was 0 of 6.
For `CC[C@@]1(O)C(=O)OCc2c1cc1n(c2=O)Cc2cc3c(OC)cccc3nc2-1`, the T/C (dose: 1.0 mg/kg/injection, schedule: Q04DX003 (ip), vehicle: saline with Tween-80) was 134 % of control, the T/C (dose: 2.0 mg/kg/injection, schedule: Q01DX009 (ip), vehicle: carboxymethylcellulose (CMC)) was 129 % of control [5 of 6 alive] and the T/C (dose: 2.0 mg/kg/injection, schedule: Q01DX009 (ip), vehicle: saline with Tween-80) was 136 % of control. The T/C (dose: 2.0 mg/kg/injection, schedule: Q04DX003 (ip), vehicle: saline with Tween-80) was 139 % of control.
In the case of `S=C(SC(=S)N(C1CCCCC1)C1CCCCC1)N(C1CCCCC1)C1CCCCC1`, the survivor count [4] was 6 of 6 and the survivor count (dose: 400.0 mg/kg/injection, schedule: Q01DX009 (ip), vehicle: saline with Tween-80) was 6 of 6.
`CCC(O)C(c1ccccc1)(c1ccccc1)C(C)CN(C)C` (stereo not drawn) was tested, and the survivor count [1] was 0 of 6.
For `Cc1ccc([N+](=O)[O-])cc1NC(=O)Nc1ccccc1O`, the survivor count [3] was 6 of 6.
In the case of `CCCCC(=O)N1C(C)CCC1C` (stereo not drawn), the survivor count (dose: 400.0 mg/kg/injection, schedule: Q04DX002 (ip), vehicle: saline) was 1 of 3.
In the case of `O=C1N(Cl)C(=O)C(c2ccc(C(F)(F)F)cc2)(c2ccc(C(F)(F)F)cc2)N1Cl`, the survivor count [4] was 5 of 6 and the survivor count (dose: 400.0 mg/kg/injection, schedule: Q04DX003 (ip), vehicle: saline with Tween-80) was 3 of 6.
With `CCC(C)c1cc([N+](=O)[O-])cc([N+](=O)[O-])c1O` (stereo not drawn) the survivor count (dose: 100.0 mg/kg/injection, schedule: Q04DX003 (ip), vehicle: Klucel (hydroxypropylcellulose) (HPC)) was 1 of 6, the survivor count (dose: 200.0 mg/kg/injection, schedule: Q04DX003 (ip), vehicle: Klucel (hydroxypropylcellulose) (HPC)) was 0 of 6 and the survivor count (dose: 400.0 mg/kg/injection, schedule: Q04DX003 (ip), vehicle: Klucel (hydroxypropylcellulose) (HPC)) was 0 of 6.
With `CC[C@@]1(O)C[C@H](OC2CC(N(C)C)C(OC3CC(O)C(OC4CCC(=O)C(C)O4)C(C)O3)C(C)O2)c2c(cc3c(c2O)C(=O)c2c(O)ccc(O)c2C3=O)[C@H]1C(=O)OC` (stereo partly drawn) the T/C (dose: 0.5 mg/kg/injection, schedule: Q01DX009 (ip), vehicle: saline) was 125 % of control, the T/C (dose: 1.08 mg/kg/injection, schedule: Q01DX009 (ip), vehicle: water) was 134 % of control and the T/C (dose: 1.5 mg/kg/injection, schedule: Q01DX009 (ip), vehicle: saline) was 138 % of control. The T/C (dose: 1.8 mg/kg/injection, schedule: Q01DX009 (ip), vehicle: water) was 138 % of control [7 of 8 alive], the T/C (dose: 2.0 mg/kg/injection, schedule: Q01DX003 (ip), vehicle: saline) was 136 % of control and the T/C (dose: 2.0 mg/kg/injection, schedule: Q01DX009 (ip), vehicle: saline) was 125 and 126 % of control. For the same compound, the T/C (dose: 2.88 mg/kg/injection, schedule: Q04DX003 (ip), vehicle: water) was 133 % of control, the T/C (dose: 3.0 mg/kg/injection, schedule: Q01DX009 (ip), vehicle: saline) was 125 % of control and the T/C (dose: 3.0 mg/kg/injection, schedule: Q04DX003 (ip), vehicle: saline) was 127 % of control. The survivor count (dose: 4.0 mg/kg/injection, schedule: Q01DX003 (ip), vehicle: saline) was 6 of 6, the survivor count (dose: 4.0 mg/kg/injection, schedule: Q01DX009 (ip), vehicle: saline) was 6 of 6 and the T/C (dose: 4.32 mg/kg/injection, schedule: Q01DX001 (ip), vehicle: water) was 129 % of control. The T/C (dose: 4.8 mg/kg/injection, schedule: Q04DX003 (ip), vehicle: water) was 144 % of control, the survivor count (dose: 5.0 mg/kg/injection, schedule: Q01DX009 (ip), vehicle: water) was 8 of 8 and the survivor count (dose: 6.0 mg/kg/injection, schedule: Q01DX009 (ip), vehicle: saline) was 6 of 6. For the same compound, the T/C (dose: 7.2 mg/kg/injection, schedule: Q01DX001 (ip), vehicle: water) was 143 % of control and the T/C (dose: 8.0 mg/kg/injection, schedule: Q04DX003 (ip), vehicle: water) was 129 % of control.
`CC(Oc1ccccc1)C(=O)NC(=S)Nc1cc(Cl)ccc1Cl` (stereo not drawn) was tested, and the survivor count (dose: 400.0 mg/kg/injection, schedule: Q01DX001 (ip), vehicle: other) was 6 of 6, the survivor count [2] was 1 of 3 and the survivor count (dose: 400.0 mg/kg/injection, schedule: Q04DX002 (ip), vehicle: other) was 3 of 3.
